Experimental findings from patent US20030027314A1 are described below.

The labels stand for the following.
B1: 3heptad-F (designed binder)
chain: ASMTGGQQMGRDPGGGLARENEELEKEAEELEQENAELEQEVLELESRNDRLRKEVEQLERELDTLRGIFRQLPESSLVKAMGNCA
B2: 2heptad-F (designed binder)
chain: ASMTGGQQMGRDPGGGLEKEAEELEQENAELEQEVLELESRNDRLRKEVEQLERELDTLRGIFRQLPESSLVKAMGNCA
B3: 1heptad-F (designed binder)
chain: ASMTGGQQMGRDPGGGLEQENAELEQEVLELESRNDRLRKEVEQLERELDTLRGIFRQLPESSLVKAMGNCA
B4: 0heptad-F (F zipper with the basic region deleted) (designed binder)
chain: ASMTGGQQMGRDPGGGTQQEVLELESRNDRLRKEVEQLERELDTLRGIFRQLPESSLVKAMGNCA
B5: 4heptad-F (designed binder)
chain: ASMTGGQQMGRDPGGGLEQRAEELARENEELEKEAEELEQENAELEQEVLELESRNDRLRKEVEQLERELDTLRGIFRQLPESSLVKAMGNCA
B6: C/EBP bZIP domain (chimeric GCN4-C/EBP protein) (protein)
chain: SEYQPSLFALNPMGFSPLDGSKSTNENVSASTSTAKPMVGQLIFDKFIKTEEDPGKAKKSVDKNSNEYRVRRERNNIAVRKSRDKAKQRNVETQQKVLELTSDNDRLRKRVEQLSRELDTLRGIFRQLPESSLVKAMGNCA
B7: 3heptad-F (cap, e g) (designed binder)
chain: B1 chain with E22I, E23A, L24V, A28R, E29D, E30K, L31A, A36V
B8: 3heptad-F (cap, a d) (designed binder)
chain: B1 chain with E20N, E22I, E23A, E25R, E27S, E29D, E30K, E32K, E34R, A36V
B9: 3heptad-F (cap, b c) (designed binder)
chain: B1 chain with E20N, L24V, E25R, E27S, A28R, L31A, E32K, E34R
B10: 3heptad-F (cap) (designed binder)
chain: ASMTGGQQMGRDPGGGLARNNIAVRKSRDKAKQRNVELEQEVLELESRNDRLRKEVEQLERELDTLRGIFRQLPESSLVKAMGNCA

Positions count from the first letter of the chain named. No constants are given. Whether binding was seen depends on the method and setting. Some entries that bind do so weakly or less than the wild type.

The first assay has as its target C/EBP bZIP domain (chimeric GCN4-C/EBP protein) (C/EBP part: 'present in rat liver'; GCN4 part: yeast). Put plainly: CD thermal melts of mixtures.
Take B1: the binding entry is “binds”.
On the same count and under the same terms, the value for B2 was “binds”; that for B3 was “binds”.
On the same count and under the same terms, in the case of B4 it was “binds”; in that of B5, “binds”.

The next assay has the same target. Put plainly: thermal melts of mixtures (FIG. 1).
As to B5, the binding result was “binds”.

The next assay has the same target. In words: sedimentation equilibrium at 37 °C (FIG. 12).
Turning to B1, the binding entry is “binds”.
Same read-out and setting: in the case of B6 it was “binds”.

The next assay shares this target. Put plainly: heterodimer stability of four mutant proteins.
As to B7, the binding entry is on record as “binds”.
With B8, the binding entry is reported as “binds”.
On the same count and under the same terms, the value for B9 was “binds”; that for B10 was “binds”.

The next assay has the same target. In words: summary of CD, gel shift and transfection results.
Turning to B1, the binding result is “binds”.

The target is the same in a further assay. Put plainly: CD thermal melts at 222 nm, 4 µM + 4 µM (FIG. 13B).
With B1, the binding entry was “binds”.
Same read-out and setting: in the case of B2 it was “binds”; in that of B3, “binds”.
Same read-out and setting: in the case of B4 it was “binds”; in that of B5, “binds”.
